Test results from PMC7862700.
The entries are a selection whose mix differs from that of the whole data set. At the low end of the ranking, values are background and their order means little.

Each sequence was assayed against SPI1 (UniProt P17947) (assay: DAPPL (digital affinity profiling via proximity ligation, sequencing)). Conditions: 10 mM Tris-HCl pH 7.5, 50 mM NaCl, 1 mM DTT, 4% glycerol, room temperature, 30 min; GST-TFs on glutathione beads, 16-mer random dsDNA library, 0.1% …; high values mean tight binding; double strand, one strand shown; scale: fold enrichment (6-mer frequency, TF over GST control).

Row | Sequence | binding signal
1 | CACGAG | 0.828
2 | GAGCAA | 0.686
3 | GCCCAG | 0.67
4 | GCTGTC | 0.886
5 | TCCGTG | 0.517
6 | GTCTGC | 0.903
7 | AGGTCA | 0.675
8 | CGGTAG | 0.614
9 | GGTCGG | 0.288
10 | GGTGAC | 0.819
11 | CCAGGG | 0.535
12 | CGGTAC | 0.874
13 | CCGAGT | 0.881
14 | ACCCAG | 0.698
15 | TGGAGG | 0.502
16 | GCGCGA | 0.728
17 | GAGGAG | 0.211
18 | GGGGTA | 0.734
19 | AGATAC | 0.875
20 | CGGAGT | 0.341

Row | Sequence | binding signal
21 | AGAACG | 0.426
22 | CGGGAA | 0.872
23 | AACGTG | 0.377
24 | TCGTGA | 0.306
25 | AGAGGC | 0.632
26 | GCGCCA | 0.751
27 | GGTGCG | 0.564
28 | TGGGCC | 0.902
29 | GGTCAA | 0.882
30 | TGTCGA | 0.858
31 | CGGCGA | 0.721
32 | AGGCCG | 0.454
33 | TACGTG | 0.647
34 | CAGTTA | 0.722
35 | GTCATG | 0.839
36 | ACGGAG | 0.355
37 | GGGAGG | 0.312
38 | GGGGGT | 0.491
39 | GGAGCC | 0.342
40 | GAGCCA | 0.589

A few values from the list.
Entry of AGAACG under binding signal: 0.426
Entry of GGGAGG under binding signal: 0.312
Entry of GAGGAG under binding signal: 0.211
